No constants are given. Whether binding was seen depends on the method and setting. Some binding calls cover weakened binding; strength is not graded here.
Columns and labels:
[1] = molecular target: membrane-bound Heat shock protein 70 (Hsp70) on murine tumor cells (mouse) (UniProt Q61696); test: flow cytometry on viable cells from solid murine tumors
[2] = molecular target: membrane-bound Heat shock protein 70 (Hsp70) on murine tumor cells (mouse) (UniProt Q61696); test: in vivo fluorescence imaging, Hsp70 wt versus Hsp70-/- (CRISPR/Cas9 ko) 4T1 mouse mammary tumors in the same mouse, 24 h after injection

Chains of the proteins cited; added tags and fusions are not shown. Residues count along the entry.
UniProt Q61696, residues 2-641: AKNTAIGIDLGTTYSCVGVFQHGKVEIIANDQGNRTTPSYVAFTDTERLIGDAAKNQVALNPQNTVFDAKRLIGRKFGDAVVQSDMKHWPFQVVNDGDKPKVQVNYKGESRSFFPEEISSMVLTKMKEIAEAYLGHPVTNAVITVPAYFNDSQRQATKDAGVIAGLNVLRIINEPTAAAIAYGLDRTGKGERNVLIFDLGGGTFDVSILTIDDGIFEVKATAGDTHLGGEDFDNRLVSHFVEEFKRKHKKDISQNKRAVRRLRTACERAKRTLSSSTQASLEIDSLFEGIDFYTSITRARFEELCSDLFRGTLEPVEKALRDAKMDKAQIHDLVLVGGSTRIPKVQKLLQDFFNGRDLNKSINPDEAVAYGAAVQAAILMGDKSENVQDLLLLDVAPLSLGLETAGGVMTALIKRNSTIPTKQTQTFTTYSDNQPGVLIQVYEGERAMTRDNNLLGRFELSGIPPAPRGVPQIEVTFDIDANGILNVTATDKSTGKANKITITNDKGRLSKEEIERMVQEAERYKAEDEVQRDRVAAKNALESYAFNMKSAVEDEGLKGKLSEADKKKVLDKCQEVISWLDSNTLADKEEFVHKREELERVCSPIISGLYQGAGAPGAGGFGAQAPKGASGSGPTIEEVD

Binder	binding [1]	binding [2]
TKDNNLLGRFELSG (carboxyfluorescein label, position of attachment not stated) [carboxyfluorescein-conjugated Hsp70-tumor cell penetrating peptide TPP (TPP[CF])]	binds	–
TKDNNLLGRFELSG (fluorescent label '680', identity and position not stated) [TPP[680]]	–	binds

— US20170128596A1, “Peptide-Based Compounds and Their Uses for Tumor Imaging and Targeting” (Klinikum rechts der lsar der Technischen Universitaet …, priority 2014, published 2017)
